Patent US20150037339A1
Results are given in words; binding and its absence hold for the method and conditions named. Some binding calls cover weakened binding; strength is not graded here.

Chains of the proteins cited; added tags and fusions are not shown. Lines headed by an entry give the natural chain unless they say otherwise; changes in a name come on top.
UniProt P08476: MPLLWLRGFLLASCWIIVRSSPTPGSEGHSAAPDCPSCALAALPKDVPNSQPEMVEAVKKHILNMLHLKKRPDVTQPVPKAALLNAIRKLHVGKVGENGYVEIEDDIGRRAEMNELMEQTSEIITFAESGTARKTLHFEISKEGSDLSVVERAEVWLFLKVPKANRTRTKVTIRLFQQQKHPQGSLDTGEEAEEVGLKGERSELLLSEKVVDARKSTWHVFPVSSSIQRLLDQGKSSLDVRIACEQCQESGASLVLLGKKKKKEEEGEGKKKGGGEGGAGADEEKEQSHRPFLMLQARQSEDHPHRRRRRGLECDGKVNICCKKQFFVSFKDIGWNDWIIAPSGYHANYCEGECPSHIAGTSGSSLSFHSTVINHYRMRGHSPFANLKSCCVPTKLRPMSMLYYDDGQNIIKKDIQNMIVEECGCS
UniProt P09529: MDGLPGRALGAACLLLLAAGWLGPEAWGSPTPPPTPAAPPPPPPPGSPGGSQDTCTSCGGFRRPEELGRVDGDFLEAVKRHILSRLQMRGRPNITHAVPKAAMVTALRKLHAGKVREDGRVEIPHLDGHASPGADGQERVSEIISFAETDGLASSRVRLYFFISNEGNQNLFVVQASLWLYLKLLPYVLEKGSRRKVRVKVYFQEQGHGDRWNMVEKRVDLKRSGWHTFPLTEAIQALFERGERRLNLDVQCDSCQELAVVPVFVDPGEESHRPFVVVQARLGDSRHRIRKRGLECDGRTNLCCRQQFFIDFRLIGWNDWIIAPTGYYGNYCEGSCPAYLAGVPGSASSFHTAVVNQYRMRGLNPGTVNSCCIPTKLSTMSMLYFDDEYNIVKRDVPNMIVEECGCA

What was measured:
Activin AB (human) = Activin AB (human) (UniProt P08476); assay: SPR Biacore 4000, captured mAb, 200 nM ligand, 37C
Activin B (human) = Activin B (human) (UniProt P09529); assay: SPR Biacore 4000, captured mAb, 200 nM ligand, 37C

| Binder | binding (Activin AB (human)) | binding (Activin B (human)) |
| --- | --- | --- |
| H4H10430P (antibody, human IgG4, V domains shown) VH: EVQLVESGGGLVQPGRSLRLSCKASGFAFDDFAMHWVRQAPGKGLEWVSGIVWNSGDIGYADSVKGRFTISRDNAKNSLYLQLNSLRTEDTALYFCVKDMVRGLMGFNYYGMDVWGQGTTVTVSS VL: EIVLTQSPATLSLSPGERATLSCRASQTISTYLVWYRQRPGQAPSLLIYDASNRATDIPARFSGSGSGTDFTLTISSLEPEDFAVYYCQQRSNWPITFGQGTRLEIK | binds | – |
| H4H10429P (antibody, human IgG4, V domains shown) VH: QVQLVESGGGVVQPGRSLRLSCVASGFTVSSYGIHWVRQAPGKGLEWVSVIWYDGRNKDYADSVKGRFTISRDNSKNTVYLEMKGLRAEDTALYYCARDKTGDFDSWGQGTLVTVSS VL: DIQMTQSPSSLSASVGDRVTITCRASQNINSFLSWYQQKPGKAPKFLIYDASSIQSGAPSRFSGSGSGTDFTLTISSLQPEDFATYYCQQSYSSPFTFGQGTKLEIK | binds | binds |
